# The list shows a part of the results. Only hits are listed; about a third recur on repeated control peptides.
# Chains of the proteins cited; added tags and fusions are not shown.
# CALR, P27797, UniProt P27797, whole entry: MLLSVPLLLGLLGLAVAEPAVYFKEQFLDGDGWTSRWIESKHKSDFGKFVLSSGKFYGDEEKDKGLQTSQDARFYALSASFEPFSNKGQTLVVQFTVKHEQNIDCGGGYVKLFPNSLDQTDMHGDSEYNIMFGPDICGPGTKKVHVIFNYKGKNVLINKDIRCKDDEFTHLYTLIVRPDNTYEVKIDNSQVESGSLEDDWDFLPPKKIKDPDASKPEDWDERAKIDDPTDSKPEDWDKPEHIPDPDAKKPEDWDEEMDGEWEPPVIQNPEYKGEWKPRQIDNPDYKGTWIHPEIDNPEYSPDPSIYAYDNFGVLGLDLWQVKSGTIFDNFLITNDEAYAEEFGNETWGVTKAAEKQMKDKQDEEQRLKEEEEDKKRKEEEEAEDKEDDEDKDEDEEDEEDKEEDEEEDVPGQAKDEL
# Key:
# Assay in all cases: PRISMA enrichment of interactor (LFQ) in peptide spot vs all other peptide spots (log2 fold change); higher = stronger / more specific binding of the interactor to the peptide
# [1] = target: BAG2, O95816
# Procedure: (§1)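 PRISMA: 15-aa overlapping tiles (offset 8 aa) of 60 microproteins, plus SOS1/GLUT1 control peptides, were spot-synthesized on cellulose membranes in triplicate. Membranes were incubated with benzonase-treated HEK293T lysate, and bound proteins were identified by LC-MS/MS with LFQ. Enrichment is the log2 fold change of each protein in one spot versus all other spots. Only interactors passing the significance cutoff are listed.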
# [2] = target: CALR, P27797
# Procedure: as §1
# [3] = target: COMMD3-BMI1
# Procedure: as §1
# [4] = target: DDX20, Q9UHI6
# Procedure: as §1
# [5] = target: DDX54, Q8TDD1
# Procedure: as §1
# [6] = target: DHX40, Q8IX18
# Procedure: as §1
# [7] = target: GFPT1, Q06210
# Procedure: as §1
# [8] = target: INTS7, Q9NVH2
# Procedure: as §1
# [9] = target: P4HB, P07237
# Procedure: as §1
# [10] = target: PIN4, Q9Y237
# Procedure: as §1
# [11] = target: SAP18, O00422
# Procedure: as §1
# [12] = target: SAP30BP, Q9UHR5
# Procedure: as §1
# [13] = target: SNRNP40, Q96DI7
# Procedure: as §1
# [14] = target: C1orf131, Q8NDD1
# Procedure: as §1
# [15] = target: CDCA7L, Q96GN5
# Procedure: as §1
# [16] = target: CHMP2B, Q9UQN3
# Procedure: as §1
# [17] = target: COX6C, P09669
# Procedure: as §1
# [18] = target: GLYR1, Q49A26
# Procedure: as §1
# [19] = target: LAP3, P28838
# Procedure: as §1
# [20] = target: MAP7D1, Q3KQU3
# Procedure: as §1
# [21] = target: MRPL43, Q8N983
# Procedure: as §1
# [22] = target: MRPS24, Q96EL2
# Procedure: as §1
# [23] = target: NOP53, Q9NZM5
# Procedure: as §1
# [24] = target: NOP56, O00567
# Procedure: as §1
# [25] = target: PNISR, Q8TF01
# Procedure: as §1
# [26] = target: PRIM1, P49642
# Procedure: as §1
# [27] = target: PSMD8, P48556
# Procedure: as §1
# [28] = target: PYM1, Q9BRP8
# Procedure: as §1
# [29] = target: RCC2, Q9P258
# Procedure: as §1
# [30] = target: RRP12, Q5JTH9
# Procedure: as §1
# [31] = target: RRP9, O43818
# Procedure: as §1
# [32] = target: YY1, P25490
# Procedure: as §1
# [33] = target: ZC3HAV1, Q7Z2W4
# Procedure: as §1
Binder,PRISMA enrichment of interactor (log2) [1],PRISMA enrichment of interactor (log2) [2],PRISMA enrichment of interactor (log2) [3],PRISMA enrichment of interactor (log2) [4],PRISMA enrichment of interactor (log2) [5],PRISMA enrichment of interactor (log2) [6],PRISMA enrichment of interactor (log2) [7],PRISMA enrichment of interactor (log2) [8],PRISMA enrichment of interactor (log2) [9],PRISMA enrichment of interactor (log2) [10],PRISMA enrichment of interactor (log2) [11],PRISMA enrichment of interactor (log2) [12],PRISMA enrichment of interactor (log2) [13],PRISMA enrichment of interactor (log2) [14],PRISMA enrichment of interactor (log2) [15],PRISMA enrichment of interactor (log2) [16],PRISMA enrichment of interactor (log2) [17],PRISMA enrichment of interactor (log2) [18],PRISMA enrichment of interactor (log2) [19],PRISMA enrichment of interactor (log2) [20],PRISMA enrichment of interactor (log2) [21],PRISMA enrichment of interactor (log2) [22],PRISMA enrichment of interactor (log2) [23],PRISMA enrichment of interactor (log2) [24],PRISMA enrichment of interactor (log2) [25],PRISMA enrichment of interactor (log2) [26],PRISMA enrichment of interactor (log2) [27],PRISMA enrichment of interactor (log2) [28],PRISMA enrichment of interactor (log2) [29],PRISMA enrichment of interactor (log2) [30],PRISMA enrichment of interactor (log2) [31],PRISMA enrichment of interactor (log2) [32],PRISMA enrichment of interactor (log2) [33]
SVYRPCTSPGRFFHN [EBAG9],6.32,5.98,4.08,5.71,5.55,5.36,4.7,8.69,4.9,4.38,4.92,5.38,5.49,,,,,,,,,,,,,,,,,,,,
MARACRVTAPPPAAA [THAP7],4.67,,,,,,,,,,,,,4.8,5.99,6.32,5.15,6.88,4.44,5.51,6.62,4.96,5.69,5.19,4.47,5.08,8.72,6.2,4.94,6.01,6.62,7.11,5.02

# Source: the supplement of paper PMC10032668
